{
  "source": "patent US20100234379A1",
  "about": "“Dual modulation of endocannabinoid transport and fatty-acid amide hydrolase for treatment of excitotoxicity” (priority 2005, published 2010)",
  "system": "hippocampal slice cultures",
  "assay": "In vitro excitotoxicity: AMPA insult in cultured hippocampal slices, immunoblot for BDPN and GluR1",
  "conditions": "AMPA-treated slice cultures, 24 h post-insult",
  "note": "Some results were stated once for a whole list of compounds, not compound by compound. At least one structure is not confirmed: it was looked up by name or label, or the drawing left a doubt.",
  "data": [
    {"smiles": "CCCCC/C=C\\C/C=C\\C/C=C\\C/C=C\\CCCC(=O)N[C@H](C)CO", "note": "[A, R-methanandamide]", "values": [
      {"measurement": "attenuation of the loss of the postsynaptic marker GluR1", "result": "50-70%"}
    ]}
  ]
}
